Values from PubChem BioAssay AID504808 (Drosophila RNAi Screening Center, 2011)

Purpose: 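Fly genes required to hold E2F transcription in check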 (primary screen)
Cells: Drosophila S2 cells
Reagents: long dsRNA against Drosophila genes
Measured: 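Firefly luciferase driven by E2F sites, normalised to Renilla luciferase on the same minimal promoter, measured by plate reader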
Scale: E2F firefly: higher = more E2F reporter activity; Renilla normaliser: higher = more normaliser reporter signal
Call rule: 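Called active if the normalised E2F reporter went up by over 50%; the cutoff is arbitrary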
The screen tested about 21,000 reagents; this is an unselected part of those that have a named target and a result. Over the whole deposit, 18 (0.084%) were called active. 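Raw counts without plate normalisation, one of two replicates; the ratio scores behind the calls were not deposited.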 A number with no mark means an inactive call. A plus sign joins genes that one reagent is predicted to hit. Not stated in the record: the amount of reagent, the time to read-out.

Knock-down of sti [DRSC09739] resulted in: E2F firefly, rep 1 = 1.08e5; Renilla normaliser, rep 1 = 6490.
For sti [DRSC09740], the values are E2F firefly, rep 1 = 1.17e5; Renilla normaliser, rep 1 = 7704.
For LysP [DRSC08676], the entry reads E2F firefly, rep 1 = 1.01e5; Renilla normaliser, rep 1 = 4316.
Depletion of mthl9 [DRSC08506] came out at: E2F firefly, rep 1 = 99123; Renilla normaliser, rep 1 = 3936.
Against CG18547 [DRSC15345], the values are E2F firefly, rep 1 = 1.33e5; Renilla normaliser, rep 1 = 5910.
With knock-down of Scgbeta [DRSC15854], the record shows E2F firefly, rep 1 = 1.46e5; Renilla normaliser, rep 1 = 6670.
Against Nthl1 [DRSC03183] the deposit lists E2F firefly, rep 1 = 97310; Renilla normaliser, rep 1 = 4467.
After knock-down of CG32700 [DRSC17857], the record shows E2F firefly, rep 1 = 1.20e5; Renilla normaliser, rep 1 = 5180.
For CG32700 [DRSC17858] the deposit lists E2F firefly, rep 1 = 1.24e5; Renilla normaliser, rep 1 = 5941.
CG11498 [DRSC14315] scored E2F firefly, rep 1 = 93915; Renilla normaliser, rep 1 = 5079.
Knock-down of CG11593 [DRSC08206] resulted in: E2F firefly, rep 1 = 1.06e5; Renilla normaliser, rep 1 = 4385.
With knock-down of RpL32 [DRSC16835], the screen gave E2F firefly, rep 1 = 54882; Renilla normaliser, rep 1 = 4429.
After knock-down of Pbgs [DRSC09718], the record shows E2F firefly, rep 1 = 1.27e5; Renilla normaliser, rep 1 = 6829.
Silencing of CG11456 [DRSC11665] gave: E2F firefly, rep 1 = 71595; Renilla normaliser, rep 1 = 3298.
After knock-down of yellow-f [DRSC15348], the screen gave E2F firefly, rep 1 = 1.11e5; Renilla normaliser, rep 1 = 6095.
With knock-down of Jhbp15 [DRSC15217] the results were E2F firefly, rep 1 = 1.48e5; Renilla normaliser, rep 1 = 7257.
CG42304 + Snup [DRSC08276] showed E2F firefly, rep 1 = 88944; Renilla normaliser, rep 1 = 3524.
With knock-down of CG42304 + Snup [DRSC08277] the results were E2F firefly, rep 1 = 97400; Renilla normaliser, rep 1 = 3742.
Menl-2 + Menl-1 [DRSC07469] showed E2F firefly, rep 1 = 1.57e5; Renilla normaliser, rep 1 = 5393.
Against Menl-2 + Menl-1 [DRSC07470] the deposit lists E2F firefly, rep 1 = 1.42e5; Renilla normaliser, rep 1 = 4914.
Knock-down of grn [DRSC12666] came out at: E2F firefly, rep 1 = 65294; Renilla normaliser, rep 1 = 4030.
With knock-down of grn [DRSC16961], the record shows E2F firefly, rep 1 = 1.36e5; Renilla normaliser, rep 1 = 6859.
After knock-down of ifc [DRSC03549], the record shows E2F firefly, rep 1 = 86834; Renilla normaliser, rep 1 = 3871.
Knock-down of CG30466 [DRSC05556] resulted in: E2F firefly, rep 1 = 1.27e5; Renilla normaliser, rep 1 = 4514.
For AgmNAT [DRSC18072] the deposit lists E2F firefly, rep 1 = 43864; Renilla normaliser, rep 1 = 3353.
Knock-down of Xpc [DRSC07654] resulted in: E2F firefly, rep 1 = 75027; Renilla normaliser, rep 1 = 3285.
For Usp12-46 [DRSC16175], the values are E2F firefly, rep 1 = 1.21e5; Renilla normaliser, rep 1 = 6043.
CG13643 [DRSC14641] scored E2F firefly, rep 1 = 1.07e5; Renilla normaliser, rep 1 = 5562.
With knock-down of CG13643 [DRSC14642], the screen gave E2F firefly, rep 1 = 1.10e5; Renilla normaliser, rep 1 = 6029.

Targets above whose target name starts with G or g:
grn [DRSC12666] | E2F firefly, rep 1 = 65294; Renilla normaliser, rep 1 = 4030
grn [DRSC16961] | E2F firefly, rep 1 = 1.36e5; Renilla normaliser, rep 1 = 6859
